# According to US12208160B2, “Pharmaceutical compositions comprising coated API” (Catalent U.K. Swindon Zydis Limited, priority 2020, dated 2025):
# Assay: Height of foam of suspension mixes of coated Ibuprofen (aeration)
structure (smiles),measurement,setting,value
C=C(C)[C@H]1CC=C(C)CC1 [limonene],Foam Height,0.30 % w/w in matrix solution/suspension with coated Ibuprofen,1 mm
same,Foam Height,0.6 % w/w in matrix solution/suspension with coated Ibuprofen,1 mm
same,Foam Height,[…] w/w in matrix solution/suspension with coated Ibuprofen,2 mm
